# ± gives the standard deviation. The list shows a part of the results, in another mix than the full data. Many entries were measured with a wide error.
# What was measured:
# [1] = test system: MILI (PIWIL2) piRISC loaded with L1MC piRNA (26 nt); assay: pre-steady-state target cleavage rate (min^-1); MIWI and MILI are mouse PIWI proteins and EfPiwi is from a freshwater sponge; tags in brackets are library labels; higher = faster piRNA-guided slicing of the target; details: guide: L1MC piRNA 5'p-UAACUAAAUACUAUGCAAGCUGUAGG
# Summary of the method: (§1)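 Using HEPES–potassium acetate buffer at 33 °C, 1 nM active affinity-purified piRISC with a single synthetic guide was mixed with 0.1 nM transcribed, DNA-blocked target RNA library for 0–8 or 0–960 min, with or without 500 nM GTSF1 partner protein. Uncleaved targets were sequenced and normalised to depth and to weakly complementary targets, and three trials were pooled with k3 capped at 0.0001 min^-1. A burst-and-steady-state fit gave the pre-steady-state cleavage rate.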
# [2] = test system: MIWI (PIWIL1) piRISC loaded with L1MC piRNA (30 nt); assay: as above; details: guide: L1MC piRNA 5'p-UAACUAAAUACUAUGCAAGCUGUAGGUCCU
# Summary of the method: as §1
# [3] = auxiliary factor: 500 nM mouse GTSF1
# [4] = auxiliary factor: none (no GTSF1)
Sequence,"pre-steady-state target cleavage rate [1, 3]","pre-steady-state target cleavage rate [1, 4]","pre-steady-state target cleavage rate [2, 3]","pre-steady-state target cleavage rate [2, 4]"
UCCUGGAUGUCGUUGCUUAGUAUUUACUUA,0.00372 ± 0.0041,0.00105 ± 0.0067,–,–
UCCUCCUACAGCUUCCUUAGUAUUUAGUUA,0.216 ± 0.025,0.00443 ± 0.002,–,–
UCCUGCUAGAGCAUGCAUAGUAUUUAGUUA,0.226 ± 0.018,0.00708 ± 0.0024,–,–
UCCUGGAUGUCCUUGCAUAGUAUUUAGUUUA,0.104 ± 0.015,0.00891 ± 0.0035,–,–
UCCUCGAACAGCUUGCAUAGUAUUUAGUAA,0.242 ± 0.015,0.00453 ± 0.0022,–,–
UCCUGGUACAGCUUGCAUAGUAUUUACUUA,0.103 ± 0.025,0.00236 ± 0.0042,–,–
UCCUGCUACAGCUUGCAUAGUAAUUUAGUUA,0.233 ± 0.023,0.00525 ± 0.0024,–,–
UCCUGGAUGUCGAACCAUAGUAUUUUCUUA,0.000114 ± 0.027,0.000156 ± 0.027,0.000202 ± 0.029,–
UCCUCCUACAGCUUGCAUAGUAUAUUGUUA,0.128 ± 0.019,0.00269 ± 0.0025,–,–
UCCUCCUACAGCUUGCAUAGUAAUUACAAA,0.18 ± 0.039,0.00142 ± 0.0043,–,0.000522 ± 0.011
UCCUGGAUGUCGAACGUAAGUAUUUUCAUA,0.000234 ± 0.035,0.000305 ± 0.014,0.000233 ± 0.038,–
UCCUGGAUGUCGAUGCUUAGUAUUUACUUA,0.000513 ± 0.015,0.00034 ± 0.013,–,–
UCCUCCUACACCUUGCAUAGUAAUUAGUUA,0.196 ± 0.031,0.00304 ± 0.0027,–,–
UCCUGGAUGUCGAUGCAUAGUAUUUAGUGUA,0.149 ± 0.045,0.00213 ± 0.004,–,0.00134 ± 0.0074
UCCUGGAUGUCGAAGCAUAGUGAUUUAGUUA,0.00304 ± 0.0039,0.00124 ± 0.005,–,0.000741 ± 0.0086
UCCUGGAUGUCGAACGUUACGUAUUUAGUUA,0.000278 ± 0.02,0.000179 ± 0.029,–,0.000238 ± 0.028
UCCUGGAUGUCGAAGCGAUAGUAUUUAGUUA,0.00135 ± 0.0064,0.000548 ± 0.011,–,0.000512 ± 0.013
UCCUGGAACAGCUUGCAUAGUAUAUUGUUA,0.153 ± 0.029,0.0015 ± 0.0048,–,–
UCCUGGAACACGUUGCAUAGUAUUUACAAA,0.0879 ± 0.017,0.00155 ± 0.0041,–,0.00174 ± 0.0047
UCCUGGAUGAGCUUGCAAAGUAUUUAGUUA,0.0794 ± 0.011,0.00483 ± 0.0028,–,–
UCCUGGUACAGCUUGCAAUGUAUUUACAAA,0.00784 ± 0.0049,0.00185 ± 0.0046,–,0.0024 ± 0.0038
UCCUGGAUGUCGUUACAUAGUAUUUAGUUA,0.105 ± 0.011,0.00442 ± 0.0022,–,0.000783 ± 0.0087
UCCUGGAUGUCCUUCGAUAGUAUUUAGUUA,0.00794 ± 0.0037,0.000989 ± 0.0052,–,0.0009 ± 0.005
UCCUGGAUGUCGAACGAUAGUAUUUAAGUUA,0.000174 ± 0.031,< 0.0001,–,–
UCCUGGAUCAGGUUGCAUAGUAAUUAGUUA,0.152 ± 0.015,0.00739 ± 0.0017,–,–

# 3 neighbouring entries out of the list so far:
Sequence,"pre-steady-state target cleavage rate [1, 3]","pre-steady-state target cleavage rate [1, 4]","pre-steady-state target cleavage rate [2, 3]","pre-steady-state target cleavage rate [2, 4]"
UCCUGGAUGAGCUUGCAAAGUAUUUAGUUA,0.0794 ± 0.011,0.00483 ± 0.0028,–,–
UCCUGGUACAGCUUGCAAUGUAUUUACAAA,0.00784 ± 0.0049,0.00185 ± 0.0046,–,0.0024 ± 0.0038
UCCUGGAUGUCGUUACAUAGUAUUUAGUUA,0.105 ± 0.011,0.00442 ± 0.0022,–,0.000783 ± 0.0087

# (further entries)

Sequence,"pre-steady-state target cleavage rate [1, 3]","pre-steady-state target cleavage rate [1, 4]","pre-steady-state target cleavage rate [2, 3]","pre-steady-state target cleavage rate [2, 4]"
UCCUGGAUGUCGAUGCUUUGUAUUUAGUUA,0.000571 ± 0.013,0.000368 ± 0.013,–,0.000645 ± 0.0099
UCCUGGAACAGCUUGCAUACGUAUUUAGUUA,0.00209 ± 0.0063,0.0014 ± 0.0046,–,0.000701 ± 0.0089
UCCUGGAUGUCGUUGGAUACUAUUUAGUUA,< 0.0001,< 0.0001,–,–
UCCUGGAUGUCGAAGCAUAGUAUAUAGUUA,0.0508 ± 0.015,0.00342 ± 0.0022,–,0.00066 ± 0.0091
UCCUGGAACACCUUGCAUAGUAUUAAGUUA,0.189 ± 0.034,0.00181 ± 0.0035,–,–
UCCUGGAUGUCGUUGCUUAGAAUUUAGUUA,0.000816 ± 0.0091,0.000412 ± 0.011,0.000237 ± 0.04,–
UCCUGCUACUCCUUGCAUAGUAUUUAGUAA,0.188 ± 0.023,0.00412 ± 0.002,–,–
UCCUGGAUGUCGAAGCAUAGUUAUUUAGUUA,0.00318 ± 0.0043,0.00199 ± 0.0032,0.000468 ± 0.019,0.00101 ± 0.0069
UCCUGGAUGUCGAAGCAUAGUAUUUACAUA,0.00213 ± 0.0047,0.000397 ± 0.013,–,0.000658 ± 0.0081
UCCUCCUACAGCUUCGUUAGUAUUUAGUAA,0.186 ± 0.026,0.00171 ± 0.0029,–,0.00081 ± 0.0051
UCCUCCUACAGCUUGCAUAGAUAUUAGUAA,0.015 ± 0.007,0.000681 ± 0.0085,–,0.000724 ± 0.0093
UCCUGGAUGUCGAACCAUAGUAUUUUGUAA,0.000223 ± 0.042,< 0.0001,0.000149 ± 0.03,–
UCCUGGAUGUCGUUGCAGUAGUAUUUAGUUA,0.000701 ± 0.013,0.000784 ± 0.011,–,0.000792 ± 0.01
UCCUGGAUGUGCUUGCAUACUAAUUAGUUA,0.00944 ± 0.0038,0.00161 ± 0.0047,–,0.00123 ± 0.0045
UCCUGGAUCAGCUUGCUAUGUAUUUUCAAA,0.00137 ± 0.0079,0.000629 ± 0.0076,–,0.000642 ± 0.01
UCCUGGUACAGCUUGCUAAGUAUUUAGAAA,0.0132 ± 0.0056,0.000817 ± 0.0063,–,0.00161 ± 0.0041
UCCUGGAUGUCCUUGCGAUAGUAUUUAGUUA,0.00182 ± 0.0062,0.00131 ± 0.0054,0.00103 ± 0.0085,0.00113 ± 0.006
UCCUCCUACAGCUUGGUAAGUAUUUAGUAA,0.155 ± 0.025,0.00232 ± 0.0027,–,0.000794 ± 0.0055
UCCUGGAUGUCGUUGCAAAGUAUUUAGAUA,0.00273 ± 0.0043,0.000918 ± 0.0065,–,0.000754 ± 0.0079
UCCUGGUACUGCUUGCAUAGUAUUUACAAA,0.00977 ± 0.0049,0.001 ± 0.0052,–,0.00226 ± 0.0041
UCCUGGAUGUCCUUGCAUAGUAUAUAGAUA,0.0132 ± 0.0063,0.00147 ± 0.0049,–,0.00135 ± 0.006
UCCUGGAUGUCGAACAAUAGUAUUUAGUUA,0.00019 ± 0.013,< 0.0001,–,0.000158 ± 0.012
UCCUGGAUCAGCUUGCAUAGUAUAUAGAAA,0.115 ± 0.03,0.00155 ± 0.0043,–,0.00267 ± 0.0043
UCCUCCUACAGCUUGCUAUGUAUUUAGAAA,0.00902 ± 0.0042,0.000805 ± 0.0069,–,0.000664 ± 0.0076
